Data from patent US20200270125A1.
Where two headings read alike, the source gives them in different places. No constants are given. Whether binding was seen depends on the method and setting. Some binding calls cover weakened binding; strength is not graded here.

Legend:
[1] = target: human MASP-3 (construct not stated) (human)
[2] = target: human MASP-3 (construct not stated) (human); assay: DTLacO screen
[3] = target: human MASP-3 (construct not stated) (human); assay: FACS, DTLacO cells stained with labelled MASP-3
[4] = target: human MASP-3 (construct not stated) (human); assay: FACS histogram of DTLacO cells displaying clone M3M1, stained with MASP-3 antigen; grey filled curve is the IgG1-stained negative control
[5] = target: human MASP-3 (construct not stated) (human); remark: listed apart in the source
[6] = target: human MASP-3 (construct not stated) (human); assay: FACS histogram of DTLacO cells displaying clone M3J5, stained with MASP-3 antigen; grey filled curve is the IgG1-stained negative control
[7] = target: human MASP-3 (construct not stated) (human); assay: saturation binding by flow cytometry: DTLacO cells expressing the antibody stained with various concentrations of fluorescent-labeled soluble MASP-3 antigen
[8] = target: recombinant cynomolgus monkey MASP-3 (cynomolgus monkey); assay: cross-species binding experiments
[9] = target: recombinant rat MASP-3 (rat); assay: cross-species binding experiments
[10] = target: human MASP-3 (construct not stated) (human); assay: cross-species binding, ranking of Fab binding
[11] = target: recombinant cynomolgus monkey MASP-3 (cynomolgus monkey); assay: cross-species binding, ranking of Fab binding
[12] = target: recombinant rat MASP-3 (rat); assay: cross-species binding, ranking of Fab binding

Measured: binding

B1: MASP-3 specific clone M3M1 (antibody, V domains shown)
VH: AVTLDESGGGLQTPGGGLSLVCKASGFDFSSYQMNWIRQAPGKGLEFVAAINRFGNSTGHGAAVKGRVTISRDDGQSTVRLQLSNLRAEDTATYYCAKGVYGYCGSYSCCGVDTIDAWGHGTEVIVSS
VL: ALTQPASVSANPGETVKITCSGGGSYAGSYYYGWYQQKAPGSAPVTLIYYNNKRPSDIPSRFSGSLSGSTNTLTITGVRADDEAVYFCGSADNSGAAFGAGTTLTVL
binds: [1] | [2] | [3] | [4]

B2: MASP-1 clone 1E10 (antibody, human IgG1, V domains shown)
VH: AVTLDESGGGLQTPGGALSLVCKASGFTFSSYDMVWVRQAPGKGLEFVAGISRNDGRYTEYGSAVKGRATISRDNGQSTVRLQLNNLRAEDTATYYCARDAGGSAYWFDAGQIDAWGHGTEVIVSS
VL: ALTQPASVSANPGETVKITCSGGGSYAGSYYYGWYQQKAPGSAPVTLIYYNNKRPSDIPSRFSGSLSGSTNTLTITGVRADDEAVYFCGSADNSGAAFGAGTTLTVL
binds: [2]

B3: MASP-3 clone D14 (antibody, human IgG1, V domains shown)
VH: AVTLDESGGGLQTPGGALSLVCKASGFTFSSYAMHWVRQAPGKGLEWVAGIYKSGAGTNYAPAVKGRATISRDNGQSTVRLQLNNLRAEDTGTYYCAKTTGSGCSSGYRAEYIDAWGHGTEVIVSS
VL: ALTQPASVSANPGETVKITCSGGGSYAGSYYYGWYQQKAPGSAPVTLIYYNNKRPSDIPSRFSGSLSGSTNTLTITGVRADDEAVYFCGSADNSGAAFGAGTTLTVL
binds: [5] | [2]

B4: MASP-3 specific clone M3J5 (antibody, V domains shown)
VH: AVTLDESGGGLQTPGGGLSLVCKASGFTFSSYAMGWMRQAPGKGLEYVAGIRSDGSFTLYATAVKGRATISRDNGQSTVRLQLNNLRAEDTATYFCTRSGNVGDIDAWGHGTEVIVSS
VL: ALTQPASVSANPGETVKITCSGGYSGYAGSYYYGWYQQKAPGSAPVTLIYYNNKRPSDIPSRFSGSLSGSTNTLTITGVRADDEAVYFCGSADNSGAAFGAGTTLTVL
binds: [2] | [3] | [6] | [7]

B5: 13B1 Parental Fab (Fab, V domains shown)
VH: QVQLKQSGAELMKPGASVKLSCKATGYTFTGKWIEWVKQRPGHGLEWIGEILPGTGSTNYNEKFKGKATFTADSSSNTAYMQLSSLTTEDSAMYYCLRSEDVWGTGTTVTVSS
VL: DIVMTQSPSSLAVSAGEKVTMSCKSSQSLLNSRTRKNYLAWYQQKPGQSPKLLIYWASTRESGVPDRFTGSGSGTDFTLTISSVQAEDLAVYYCKQSYNIPTFGGGTKLEIKR
binds: [8] | [9] | [10] | [11] | [12]

B6: 4D5 Parental Fab (Fab, V domains shown)
VH: QVQLKQSGPELVKPGASVKLSCKASGYTFTTDDINWVKQRPGQGLEWIGWIYPRDDRTKYNDKFKDKATLTVDTSSNTAYMDLHSLTSEDSAVYFCSSLEDTYWGQGTLVAVSS
VL: DIVMTQSPSSLAVSAGEKVTMTCKSSQSLLNSRTRKNYLAWYQQKPGQSPKLLIYWASTRESGVPDRFTGSGSGTDFSLTISSVQAEDLAVYYCKQSYNLYTFGGGTKLEIKR
binds: [8] | [9] | [10] | [11] | [12]
